Laboratory results as given in the supplement of paper PMC4371806.
In all, about 2,300 compounds were measured (“plate-normalized OD600 growth (mean of duplicates)”: median about 0.29, lowest 2% from about 0.22 on). This is one part of the list.

System: Escherichia coli BW25113
Assay: plate-normalized OD600 growth (mean of duplicates) (OD600 (normalized)); higher = more growth (less inhibition)
Details: 10 µM
Method: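 E. coli BW25113 in LB (100 µl, 96-well, no shaking) was exposed to 10 µM of each compound from a ~30,000-member library and grown at 37°C for 24 h or 15°C for 48 h, in duplicate. Growth was read as OD600 and the duplicate ODs were normalized across screening plates to correct plate-to-plate variation. Hits were >3σ below the mean OD600 at 15°C and <2σ below the mean at 37°C.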

SMILES	plate-normalized OD600 growth (temperature: 15°C, 48 h)	plate-normalized OD600 growth (temperature: 37°C, 24 h)
O=C(O)CC(NS(=O)(=O)Cc1ccccc1)c1cccc([N+](=O)[O-])c1 (centres undefined)	0.244	0.621
Cc1ccc(NC(=O)C(=O)NCCN2CCN(C(=O)c3ccccc3)CC2)cc1	0.221	0.63
c1ccc(CN2CCC(n3nnc4cccnc43)CC2)cc1	0.224	0.626
COCc1cc(C)nc2sc3c(c12)N(C(C)=O)C(c1ccc(F)cc1)NC3=O (centres undefined)	0.234	0.611
Cc1ccoc1C(=O)Nc1ccc2ccccc2c1	0.249	0.588
CCCCCCCCCCOc1ccc(C(=O)N/N=C/c2ccc(OC)cc2)cc1	0.229	0.632
Cc1cscc1S(=O)(=O)c1ccc(Cl)cc1	0.241	0.616
C[C@]12CC[C@H](O)CC1=CCC1C2CC[C@]2(C)/C(=N/NC(N)=O)CCC12 (some centres undefined)	0.249	0.631
O=C1CC(c2cccs2)Cc2nc(NCCN3CCOCC3)ncc21 (centres undefined)	0.259	0.618
CCOc1cc(/C=N/NC(=Nc2ccccc2)c2ccccn2)ccc1O	0.221	0.629
N#Cc1c(N)nc2c(c1-c1cccs1)CCCCC2	0.265	0.639
CCOC(=O)c1c(CN2CCOCC2)n(C)c2ccc(OS(=O)(=O)c3ccc(C)cc3)cc12	0.244	0.619
O=C(NCc1csc(-c2cccs2)n1)C1=Cc2ccccc2OC1	0.243	0.593
COc1ccccc1N1C(=O)c2ccc(N)cc2C1=O	0.241	0.598
Cc1ccc(S(=O)(=O)Oc2cc(=O)n(C)c3ccccc23)cc1	0.225	0.653
CCOC(=O)COc1nc(-c2cccs2)cc(C(F)(F)F)n1	0.255	0.59

A second format for two compounds above:
O=C(O)CC(NS(=O)(=O)Cc1ccccc1)c1cccc([N+](=O)[O-])c1 (centres undefined)
  plate-normalized OD600 growth (temperature: 15°C, 48 h): 0.244
  plate-normalized OD600 growth (temperature: 37°C, 24 h): 0.621
Cc1ccc(NC(=O)C(=O)NCCN2CCN(C(=O)c3ccccc3)CC2)cc1
  plate-normalized OD600 growth (temperature: 15°C, 48 h): 0.221
  plate-normalized OD600 growth (temperature: 37°C, 24 h): 0.63

(next part)

SMILES	plate-normalized OD600 growth (temperature: 15°C, 48 h)	plate-normalized OD600 growth (temperature: 37°C, 24 h)
Cc1ccc(C2=Nc3ccccc3N=C(C(Cl)Cl)C2)cc1	0.25	0.629
CCCCCCCCOc1ccc(C(CC(N)=O)C(=O)O)cc1 (centres undefined)	0.241	0.619
COc1cc(OC)nc([S+](C)[O-])n1 (centres undefined)	0.242	0.631
O=C1c2ccccc2C(=O)C1c1ccc2ccccc2c1	0.238	0.613
Cc1ccc(S(=O)(=O)Nc2nnc(C)c(/C=C/c3ccc4ccccc4c3)n2)cc1	0.249	0.633
COc1ccc2c(c1)CCCN2C(=O)NC(=O)c1c(F)cccc1Cl	0.242	0.627
S=C(Nc1cccnc1)N1CCc2ccccc21	0.23	0.626
CCN(CC)C(=O)NC(=O)c1c(C)cc(Cl)nc1Cl	0.243	0.63
COc1ccc(NC(=O)C(=O)NCCN2CCN(C(=O)c3cccc(F)c3)CC2)cc1	0.259	0.619
CCOC(=O)C(=NC)C1=NC(C)(C)Cc2ccccc21	0.232	0.57
Cc1onc2c(=O)n(-c3ccccc3)nc(-c3ccccc3)c12	0.248	0.605
C/C(=N/O)c1sc2nc(C(F)(F)F)nn2c1C	0.231	0.608
CC(NC(=O)C1C(=O)NC2(C)CC1c1ccccc1O2)c1ccccc1 (centres undefined)	0.258	0.659
CC(=O)c1ccc(NC(=S)NC(=O)c2cccnc2)cc1	0.248	0.608
Clc1cccc(CN2CCN(Cc3ccco3)CC2)c1	0.237	0.636
COc1ccc2nc(NC(=O)CSc3nnc4n(N)cnn34)sc2c1	0.245	0.612
